Values from PubChem BioAssay AID504784 (Drosophila RNAi Screening Center, 2011)
The deposit covers about 17,000 reagents; below is an unselected part of those with a known target gene and a result. 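Each column is one replicate's B-score; the combined score over replicates was not deposited, so single values may mislead.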 Names joined by + are all predicted targets of the reagent. Not all columns of the deposit are shown.

Test: 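Genome-wide knock-down for genes giving too much or too little stored lipid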 (primary screen)
System: Drosophila Kc167 embryonic cells
Knock-down reagent: long dsRNA against Drosophila genes, about 250 ng dsRNA per well
Timing: 4 days
Challenge: cells fed 400 µM oleic acid bound to BSA
Detection: 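Microscope images give a droplet-to-nucleus area ratio, taken as log and converted to a screen-wide B-score; higher values mean greater lipid storage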
Direction: droplet/nuclear area B-score: higher = more stored lipid (overstorage)

The opening 3 entries, ahead of the listing:
{"target gene": "Srp9", "DRSC id": "DRSC10973", "droplet/nuclear area B-score, replicate 1": 0.0482}
{"target gene": "CG3045", "DRSC id": "DRSC04331", "droplet/nuclear area B-score, replicate 1": 1.57}
{"target gene": "CG11670", "DRSC id": "DRSC14342", "droplet/nuclear area B-score, replicate 1": 1.57}

The list itself, repeating the preview:
{"target gene": "Srp9", "DRSC id": "DRSC10973", "droplet/nuclear area B-score, replicate 1": 0.0482}
{"target gene": "CG3045", "DRSC id": "DRSC04331", "droplet/nuclear area B-score, replicate 1": 1.57}
{"target gene": "CG11670", "DRSC id": "DRSC14342", "droplet/nuclear area B-score, replicate 1": 1.57}
{"target gene": "ara", "DRSC id": "DRSC11322", "droplet/nuclear area B-score, replicate 1": -1.16}
{"target gene": "ara", "DRSC id": "DRSC22984", "droplet/nuclear area B-score, replicate 1": 0.499}
{"target gene": "Hex-C", "DRSC id": "DRSC07079", "droplet/nuclear area B-score, replicate 1": 0.634}
{"target gene": "CCKLR-17D1", "DRSC id": "DRSC20011", "droplet/nuclear area B-score, replicate 1": 0.012}
{"target gene": "CCKLR-17D1", "DRSC id": "DRSC20012", "droplet/nuclear area B-score, replicate 1": -0.0172}
{"target gene": "CG8245", "DRSC id": "DRSC04901", "droplet/nuclear area B-score, replicate 1": 0.573}
{"target gene": "RpS10a", "DRSC id": "DRSC14161", "droplet/nuclear area B-score, replicate 1": 0.803}
{"target gene": "CG9109", "DRSC id": "DRSC03139", "droplet/nuclear area B-score, replicate 1": 0.0303}
{"target gene": "lncRNA:CR32661", "DRSC id": "DRSC19794", "droplet/nuclear area B-score, replicate 1": -0.614}
{"target gene": "CG3708", "DRSC id": "DRSC18646", "droplet/nuclear area B-score, replicate 1": 1.03}
{"target gene": "shf", "DRSC id": "DRSC18283", "droplet/nuclear area B-score, replicate 1": -1.47}
{"target gene": "CG14246", "DRSC id": "DRSC14741", "droplet/nuclear area B-score, replicate 1": -1.12}
{"target gene": "CG30203", "DRSC id": "DRSC06690", "droplet/nuclear area B-score, replicate 1": -0.592}
{"target gene": "CG9500", "DRSC id": "DRSC03237", "droplet/nuclear area B-score, replicate 1": 0.00379}
{"target gene": "APC7", "DRSC id": "DRSC17937", "droplet/nuclear area B-score, replicate 1": 3.34}
{"target gene": "CG7011", "DRSC id": "DRSC09347", "droplet/nuclear area B-score, replicate 1": 2.38}
{"target gene": "Pmvk", "DRSC id": "DRSC02032", "droplet/nuclear area B-score, replicate 1": -1.75}
{"target gene": "ifc", "DRSC id": "DRSC03549", "droplet/nuclear area B-score, replicate 1": -0.652}
{"target gene": "mms4", "DRSC id": "DRSC06249", "droplet/nuclear area B-score, replicate 1": -1.22}
{"target gene": "Topors", "DRSC id": "DRSC06531", "droplet/nuclear area B-score, replicate 1": 0.238}
{"target gene": "CG34436", "DRSC id": "DRSC15164", "droplet/nuclear area B-score, replicate 1": -1.34}
{"target gene": "CR13656", "DRSC id": "DRSC13705", "droplet/nuclear area B-score, replicate 1": 0.22}
{"target gene": "CR13656", "DRSC id": "DRSC14656", "droplet/nuclear area B-score, replicate 1": 0.108}
{"target gene": "sp3", "DRSC id": "DRSC16354", "droplet/nuclear area B-score, replicate 1": -0.842}
{"target gene": "RpL7-like + CG34164", "DRSC id": "DRSC02836", "droplet/nuclear area B-score, replicate 1": 0.529}
{"target gene": "RpL7-like + CG34164", "DRSC id": "DRSC02837", "droplet/nuclear area B-score, replicate 1": 0.857}
{"target gene": "CG6766", "DRSC id": "DRSC02991", "droplet/nuclear area B-score, replicate 1": 0.256}
{"target gene": "L", "DRSC id": "DRSC06666", "droplet/nuclear area B-score, replicate 1": 0.702}
{"target gene": "L", "DRSC id": "DRSC06668", "droplet/nuclear area B-score, replicate 1": 0.0899}
{"target gene": "Papst2", "DRSC id": "DRSC10924", "droplet/nuclear area B-score, replicate 1": -0.0466}
{"target gene": "Nnp-1", "DRSC id": "DRSC02165", "droplet/nuclear area B-score, replicate 1": -1.93}
{"target gene": "CG15599", "DRSC id": "DRSC19668", "droplet/nuclear area B-score, replicate 1": -1.27}
{"target gene": "Dtd", "DRSC id": "DRSC15362", "droplet/nuclear area B-score, replicate 1": -0.777}
{"target gene": "l(3)87Df", "DRSC id": "DRSC16982", "droplet/nuclear area B-score, replicate 1": -0.941}
{"target gene": "CG18477 + CG31780", "DRSC id": "DRSC01955", "droplet/nuclear area B-score, replicate 1": -1.22}
{"target gene": "Rbcn-3B", "DRSC id": "DRSC18574", "droplet/nuclear area B-score, replicate 1": 0.0169}
{"target gene": "MED30", "DRSC id": "DRSC08516", "droplet/nuclear area B-score, replicate 1": 3.27}
{"target gene": "MED30", "DRSC id": "DRSC23135", "droplet/nuclear area B-score, replicate 1": -0.523}
